The results in this text go back to PMC8683389, “The monofunctional CO dehydrogenase CooS is essential for growth of Thermoanaerobacter kivui on carbon monoxide” (Extremophiles, 2021).

These are yes or no findings as the source states them, for the method shown. Some binding calls cover weakened binding; strength is not graded here. Tags and fused reporters may be left off the sequences shown.

Assay [1] has as its target T1, His-AcsA, His-tagged CO dehydrogenase subunit AcsA of the CODH/ACS complex of Thermoanaerobacter kivui (Thermoanaerobacter kivui).
T1 sequence: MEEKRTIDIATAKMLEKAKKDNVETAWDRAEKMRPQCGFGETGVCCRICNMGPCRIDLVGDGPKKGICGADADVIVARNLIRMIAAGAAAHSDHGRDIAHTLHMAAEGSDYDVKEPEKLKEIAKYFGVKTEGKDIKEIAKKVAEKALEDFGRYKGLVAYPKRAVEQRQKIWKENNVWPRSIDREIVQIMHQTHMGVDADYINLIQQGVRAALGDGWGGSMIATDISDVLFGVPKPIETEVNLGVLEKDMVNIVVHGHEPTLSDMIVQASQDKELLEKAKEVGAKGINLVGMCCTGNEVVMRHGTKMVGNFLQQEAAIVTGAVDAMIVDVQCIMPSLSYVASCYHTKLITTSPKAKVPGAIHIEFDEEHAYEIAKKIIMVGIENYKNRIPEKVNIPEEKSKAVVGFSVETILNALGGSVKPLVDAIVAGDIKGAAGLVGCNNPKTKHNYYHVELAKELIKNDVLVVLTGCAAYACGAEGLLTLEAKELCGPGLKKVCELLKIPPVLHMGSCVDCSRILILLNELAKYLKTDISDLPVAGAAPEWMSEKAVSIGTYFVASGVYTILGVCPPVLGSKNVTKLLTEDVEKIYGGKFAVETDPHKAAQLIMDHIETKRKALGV
The assay is described as follows: co-purification (Ni2+-NTA affinity chromatography, then SEC), SDS-PAGE; His-tagged protein produced in T. kivui, crude extract on Ni2+-NTA resin, then Superdex 200; strictly anoxic, room temperature, buffers A and B (50 mM Tris/HCl, 150 mM NaCl, 20 mM MgSO4, 20% glycerol, pH 7.5); co-purified protein seen on a Coomassie-stained 12% SDS gel.

The target of assay [2] is His-AcsAB complex of Thermoanaerobacter kivui (Thermoanaerobacter kivui | Thermoanaerobacter kivui (endogenous in T. kivui)). The assay is described as follows: SEC; analytical size exclusion on a calibrated Superdex 200 column, buffer B, size standards 43-440 kDa; oligomeric state of the purified complex; both purified.

B1: AcsB, acetyl-CoA synthase of the CO dehydrogenase/acetyl CoA synthase complex of Thermoanaerobacter kivui (enzyme, UniProt A0A097ATJ0 1-708)
chain: MNLVDIIFTGANQALEAAKATLTAAIEKKGEDAKVVFPDTAYSLPTIYAATGQKIGTLKELAGAAPIIESLISEERNLDTALKAGLATAVCAEVIEACKYATEEKPYTEPCIGFVPDPIIRSLGVPLVTGDIPGVAVVIGEAPSAEIAAKIIKNYQNKGLLTFLVGKVIDQAIEGNVKMGLELRVVPLGYDVTSVIHVVTVALRAALIFGGVQPGDLGSLLTYTKERVPAFVNALGPLSELVVAAGAGAIALGFPVITDQDVPEIPGALISQKDYDKIGATSLEARGIKIKITEIPIPVGFAAAFEGERIRKGDMFVEFGGGRTPAWEVVRTLDMSEIEDHKIEVIGPDIDTLGPEGGKMPLGILVDVAGKKMQQDFEPVLERRIHYFLNYMEGVMHLGQRDIIWVRIGKNAYQAGLRLHHFGEVLYAKMLDEFGSVVDKVQVTIITDPAKVEEMGKTIAKPRYQARDERLAGLSDESVDVFYSCLMCQSFAPAHVCIVTPERLGLCGAVSWLDAKATKEINPTGPCQPIEKGECLDPVKGIFESCNKAVEELSHGAIKEVTLYSLMENPMTSCGCFECICAIMPEANGVIIVNREYGGMTPLGMTFGELASTTGGGNQTPGFMGHGRQYISSKKFIAAEGGLKRVVWMPKELKDAVRDKINETAKELFGIDNFADMIADETVGTAPDAVVEFLNNVGHPALTMDPLL
With B1, the binding result in assay [1] is given as “binds”.

B2: His-AcsAB complex of Thermoanaerobacter kivui (complex, UniProt A0A097ATM9 1-618; A0A097ATJ0 1-708)
chain 1: T1 sequence
chain 2: B1 chain
Turning to B2, the binding result in assay [2] was “no binding”.
